From patent US20120309051A1 (UNIVERSITY OF MEDICINE AND DENTISTRY OF NEW JERSEY, published 2012)
No constants are given. Whether binding was seen depends on the method and setting. In cells and extracts the contact can be indirect. Some results given as binding are weak or reduced against the parent protein; the word gives no strength. For part of these data: Where a sequence is shown, tags or fusion partners need not be part of it.

Experiments:
[1] = target: T1, caveolin-3 (endogenous, mouse gastrocnemius skeletal muscle) (mouse) (UniProt P51637); assay: co-immunoprecipitation from whole cell lysate of mouse gastrocnemius skeletal muscle (anti-MG53 polyclonal, anti-caveolin-3 mAb)
T1 sequence (looked up): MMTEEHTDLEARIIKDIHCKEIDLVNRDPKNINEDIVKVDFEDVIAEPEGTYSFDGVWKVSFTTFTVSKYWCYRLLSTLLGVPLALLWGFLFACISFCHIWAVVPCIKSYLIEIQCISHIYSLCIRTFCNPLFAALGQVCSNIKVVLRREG

[2] = target: T2, caveolin-3 (recombinant, expressed from pcDNA-Cav-3) (Homo sapiens (Human)) (UniProt P56539); assay: co-immunoprecipitation with anti-caveolin-3 mAb from lysate of co-transfected CHO cells
T2 sequence: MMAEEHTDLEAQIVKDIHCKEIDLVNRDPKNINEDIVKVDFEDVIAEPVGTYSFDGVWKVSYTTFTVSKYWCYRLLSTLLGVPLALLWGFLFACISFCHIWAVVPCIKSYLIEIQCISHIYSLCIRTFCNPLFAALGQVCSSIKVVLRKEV

Row | Binder | binding [1] | binding [2]
1 | mouse MG53 (mitsugumin53) (protein) MSAAPGLLRQELSCPLCLQLFDAPVTAECGHSFCRACLIRVAGEPAADGTVACPCCQAPTRPQALSTNLQLSRLVEGLAQVPQGHCEEHLDPLSIYCEQDRTLVCGVCASLGSHRGHRLLPAAEAQARLKTQLPQQKMQLQEACMRKEKTVAVLEHQLVEVEETVRQFRGAVGEQLGKMRMFLAALESSLDREAERVRGDAGVALRRELSSLNSYLEQLRQMEKVLEEVADKPQTEFLMKFCLVTSRLQKILSESPPPARLDIQLPVISDDFKFQVWKKMFRALMPALEELTFDPSSAHPSLVVSSSGRRVECSDQKAPPAGEDTRQFDKAVAVVAQQLLSQGEHYWEVEVGDKPRWALGVMAADASRRGRLHAVPSQGLWLLGLRDGKILEAHVEAKEPRALRTPERPPARIGLYLSFADGVLAFYDASNPDVLTPIFSFHERLPGPVYPIFDVCWHDKGKNAQPLLLVGPEQEQA | binds | 
2 | GFP-MG53 (GFP fused to the amino-terminus of full-length mouse MG53) (protein, not shown: large carriers) MSAAPGLLRQELSCPLCLQLFDAPVTAECGHSFCRACLIRVAGEPAADGTVACPCCQAPTRPQALSTNLQLSRLVEGLAQVPQGHCEEHLDPLSIYCEQDRTLVCGVCASLGSHRGHRLLPAAEAQARLKTQLPQQKMQLQEACMRKEKTVAVLEHQLVEVEETVRQFRGAVGEQLGKMRMFLAALESSLDREAERVRGDAGVALRRELSSLNSYLEQLRQMEKVLEEVADKPQTEFLMKFCLVTSRLQKILSESPPPARLDIQLPVISDDFKFQVWKKMFRALMPALEELTFDPSSAHPSLVVSSSGRRVECSDQKAPPAGEDTRQFDKAVAVVAQQLLSQGEHYWEVEVGDKPRWALGVMAADASRRGRLHAVPSQGLWLLGLRDGKILEAHVEAKEPRALRTPERPPARIGLYLSFADGVLAFYDASNPDVLTPIFSFHERLPGPVYPIFDVCWHDKGKNAQPLLLVGPEQEQA |  | binds
3 | GFP-TRIM (GFP fused to the amino-terminus of the TRIM portion of MG53, a.a. 1-287) (protein, not shown: large carriers) MSAAPGLLRQELSCPLCLQLFDAPVTAECGHSFCRACLIRVAGEPAADGTVACPCCQAPTRPQALSTNLQLSRLVEGLAQVPQGHCEEHLDPLSIYCEQDRTLVCGVCASLGSHRGHRLLPAAEAQARLKTQLPQQKMQLQEACMRKEKTVAVLEHQLVEVEETVRQFRGAVGEQLGKMRMFLAALESSLDREAERVRGDAGVALRRELSSLNSYLEQLRQMEKVLEEVADKPQTEFLMKFCLVTSRLQKILSESPPPARLDIQLPVISDDFKFQVWKKMFRALMPA |  | binds
